Library screen at single concentrations

Chains of the proteins cited; added tags and fusions are not shown. Residues count along the entry.
UniProt Q4DA54, 1-478: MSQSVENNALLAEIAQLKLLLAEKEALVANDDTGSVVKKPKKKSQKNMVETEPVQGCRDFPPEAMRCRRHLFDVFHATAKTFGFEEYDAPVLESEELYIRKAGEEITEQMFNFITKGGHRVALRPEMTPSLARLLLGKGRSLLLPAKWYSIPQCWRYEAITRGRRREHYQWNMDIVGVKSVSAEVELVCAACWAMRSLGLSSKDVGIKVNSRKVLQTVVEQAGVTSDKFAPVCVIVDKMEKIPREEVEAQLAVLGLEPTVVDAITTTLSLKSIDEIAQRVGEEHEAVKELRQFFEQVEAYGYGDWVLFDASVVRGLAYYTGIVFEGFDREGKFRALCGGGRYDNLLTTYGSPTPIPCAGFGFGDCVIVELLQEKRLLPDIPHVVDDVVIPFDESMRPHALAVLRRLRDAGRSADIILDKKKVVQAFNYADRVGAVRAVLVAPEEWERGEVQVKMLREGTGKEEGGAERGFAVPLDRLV
UniProt A4I591, 1-473: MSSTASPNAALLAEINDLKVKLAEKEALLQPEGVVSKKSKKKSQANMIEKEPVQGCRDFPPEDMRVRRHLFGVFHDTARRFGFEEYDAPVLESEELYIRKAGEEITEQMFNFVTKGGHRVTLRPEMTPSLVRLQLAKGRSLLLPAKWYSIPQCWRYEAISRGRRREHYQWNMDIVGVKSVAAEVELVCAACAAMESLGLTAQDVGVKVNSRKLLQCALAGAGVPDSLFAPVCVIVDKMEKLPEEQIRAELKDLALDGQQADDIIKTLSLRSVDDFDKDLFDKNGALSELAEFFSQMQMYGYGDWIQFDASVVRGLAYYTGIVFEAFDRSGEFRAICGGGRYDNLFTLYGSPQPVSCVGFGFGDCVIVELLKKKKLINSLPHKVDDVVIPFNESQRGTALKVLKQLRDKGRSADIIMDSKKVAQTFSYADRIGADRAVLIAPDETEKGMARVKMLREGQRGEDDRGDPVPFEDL
UniProt P9WPC5, whole entry: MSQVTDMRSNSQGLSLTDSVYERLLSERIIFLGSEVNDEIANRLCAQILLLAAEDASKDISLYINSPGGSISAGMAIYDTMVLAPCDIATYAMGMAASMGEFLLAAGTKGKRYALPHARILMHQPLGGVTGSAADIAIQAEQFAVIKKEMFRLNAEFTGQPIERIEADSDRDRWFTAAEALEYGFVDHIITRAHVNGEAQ
UniProt P9WPC3, whole entry partner: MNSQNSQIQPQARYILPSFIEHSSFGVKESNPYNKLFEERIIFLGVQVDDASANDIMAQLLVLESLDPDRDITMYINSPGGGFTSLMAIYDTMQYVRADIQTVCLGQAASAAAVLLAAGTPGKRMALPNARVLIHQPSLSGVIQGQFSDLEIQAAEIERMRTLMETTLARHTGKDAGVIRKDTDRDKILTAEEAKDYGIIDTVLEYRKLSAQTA

Each number is a percent effect as filed.
How 0% and 100% were set is not recorded. Most values in the screen are low, and negative values occur.
This is an unselected part of the compounds tested.

Toxoplasma: 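Assay of Toxoplasma gondii numbers, read through their beta-galactosidase reporter with a colour substrate. Tested at 10 µM. The record gives no direction; the compounds picked for IC50 retests had high values, so higher reads as fewer parasites. Of about 67,000 compounds tested this way, about 260 (0.38%) reached 50% or more in at least one test.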
Leishmania in macrophages: 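Cell assay of Leishmania donovani living inside macrophages; the read-out is not stated. Concentration: 30 µM. The record gives no direction; compounds that gave an IC50 in retests scored well above the rest, so higher reads as stronger inhibition. Of about 69,000 compounds tested this way, about 1,000 (1.5%) reached 50% or more in at least one test.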
TcHisRS: 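Enzyme assay of histidyl-tRNA synthetase; the read-out is not stated. Target: Histidine-tRNA ligase, Trypanosoma cruzi CL Brener (UniProt Q4DA54). Tested at 30 µM. Direction is inferred from retests: higher values go with stronger inhibition. Size under these conditions: about 69,000 compounds, about 31 of them at 50% or above in at least one test.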
LiHisRS: 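Enzyme assay of histidyl-tRNA synthetase; the read-out is not stated. Target: Histidine-tRNA ligase, Leishmania infantum (UniProt A4I591). Compounds at 30 µM. Direction is inferred from retests: higher values go with stronger inhibition. The assay is labelled LdHisRS but filed under L. infantum. About 69,000 compounds were tested under these conditions; 0.6% (about 410) showed 50% or more at least once.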
ClpP1P2: 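Protease assay of ClpP1P2, read by the AMC dye that it sets free. Target: ClpP1P2, Mycobacterium tuberculosis (UniProt P9WPC5 and UniProt P9WPC3). Tested at 50 µM. Direction is inferred from only a few compounds that gave an IC50; most scored high, so higher reads as stronger inhibition. Most other retested compounds had strongly negative values. About 69,000 compounds were tested under these conditions; 0.015% (about 10) showed 50% or more at least once.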
T. brucei: 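Whole-parasite assay of Trypanosoma brucei over 72 hours; the read-out is not stated. Compounds at 30 µM. Higher reads as stronger inhibition (inferred: compounds with an IC50 in retests scored well above the rest). Values scatter widely below zero; nearly all retest evidence comes from the higher of the two concentrations used. Size under these conditions: about 64,000 compounds, about 940 of them at 50% or above in at least one test.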

Result for CC(C)c1cc(C(=O)NCC2(C(N)=O)CCOCC2)nn1C(C)(C)C was Toxoplasma: -77.1%; Leishmania in macrophages: 2.018%; TcHisRS: 8.642%; LiHisRS: 6.452%; ClpP1P2: -16.28%; T. brucei: -38.34%.
Result for CCN(CC)CCn1ccnc1-c1[nH]cnc1C was Toxoplasma: -1.046%; Leishmania in macrophages: 37.91%; TcHisRS: 5.366%; LiHisRS: 16.95%; ClpP1P2: -17.21%; T. brucei: -8.715%.
Result for Cc1ccc2c(n1)N(CC1CC1)CCN(S(=O)(=O)C1CC1)C2.O=C(O)C(F)(F)F was Toxoplasma: -3.108%; Leishmania in macrophages: 4.509%; T. brucei: -29.56%.
Result for Cc1nn(C)c(Cl)c1C1CCCN1CC(=O)N1CCCCC1 (stereo unspecified) was Toxoplasma: 1.277%; Leishmania in macrophages: 8.82%; TcHisRS: 3.097%; LiHisRS: -2.655%; ClpP1P2: -6.391%; T. brucei: -33.88%.
Result for Cc1ccc(F)c(NC(=O)NCCCn2nc3ccccn3c2=O)c1 was Toxoplasma: -0.03308%; Leishmania in macrophages: 20.07%; TcHisRS: -0.2907%; LiHisRS: -6.14%; ClpP1P2: -21.41%; T. brucei: -4.986%.
Result for CC(=O)N1CCCC(c2nc(-c3ccccc3)c[nH]2)C1 (stereo unspecified) was Toxoplasma: -4.082%; Leishmania in macrophages: -23.87%; TcHisRS: 7.955%; LiHisRS: 10%; ClpP1P2: 7.128%; T. brucei: -26.76%.
Result for Cc1nc[nH]c1CN(Cc1ccccc1)Cc1nccs1 was Toxoplasma: 3.297%; Leishmania in macrophages: 20.78%; TcHisRS: 13.25%; LiHisRS: 14%; ClpP1P2: -8.594%; T. brucei: -7.884%.
Result for NS(=O)(=O)c1cnc(NCC2(c3cccc(F)c3)CCOCC2)s1 was Toxoplasma: -2.564%; Leishmania in macrophages: 0.4488%; TcHisRS: 12.04%; LiHisRS: 13.79%; ClpP1P2: -5.797%; T. brucei: -40.22%.
Result for OCc1cn(Cc2cccc(C(F)(F)F)c2)nn1 was Toxoplasma: 8.219%; Leishmania in macrophages: 13.59%; TcHisRS: 7.292%; LiHisRS: 16.67%; ClpP1P2: -2.561%.
Result for Cc1nnc2n1CCN(CC(O)CN1CCC(C)CC1)C2 (stereo unspecified) was Toxoplasma: 2.953%; Leishmania in macrophages: 33.92%; TcHisRS: 3.448%; LiHisRS: 22.08%; ClpP1P2: -1.26%; T. brucei: -8.204%.
Result for CCCS(=O)(=O)N1CCC(NC(=O)c2cc(C)c(CC)s2)CC1 was Toxoplasma: -2.533%; Leishmania in macrophages: 18.95%; TcHisRS: 1.245%; LiHisRS: 16.5%; ClpP1P2: -4.592%; T. brucei: 2.829%.
Result for COc1ccccc1OCc1cc(C(=O)N2[C@H](C)CC[C@@H]2C)n[nH]1 was Toxoplasma: 17.7%; Leishmania in macrophages: 14.13%; TcHisRS: 2.116%; LiHisRS: 15.15%; ClpP1P2: -1.082%; T. brucei: -7.729%.
Result for Cc1cc(C)nc(NCCC(=O)Nc2ccc(Cn3cncn3)cc2)n1 was Toxoplasma: 3.927%; Leishmania in macrophages: 18.2%; TcHisRS: 8.333%; LiHisRS: 12.5%; ClpP1P2: -8.696%.
Result for [H][C@@]12CN(Cc3cccc(C)n3)C[C@]1([H])N(Cc1ccccc1OC)C(=O)O2 was Toxoplasma: -29.66%; Leishmania in macrophages: -18.87%; T. brucei: -46.77%.
Result for COCCN(Cc1ccc(OC)nc1)Cc1cccs1 was Toxoplasma: -2.854%; Leishmania in macrophages: -13.47%; TcHisRS: 5.419%; LiHisRS: 11.84%; ClpP1P2: 11.65%; T. brucei: -95.94%.
Result for [H][C@@]12COCC[C@]1([H])C[C@H](N(CC(=O)O)C(=O)c1ccccc1)C2 was Toxoplasma: 26.19%; Leishmania in macrophages: 15.27%; T. brucei: -18.47%.
Result for Cc1nonc1CNC(=O)C(C)Oc1cccc(F)c1 (stereo unspecified) was Toxoplasma: 4.932%; Leishmania in macrophages: 27.16%; TcHisRS: 3.39%; LiHisRS: 9.79%; ClpP1P2: -15.32%; T. brucei: 7.981%.
Result for CCC(CN1CCOCC1)n1cncc1-c1ccc2c(c1)CCN2CC (stereo unspecified) was TcHisRS: 0.7752%; LiHisRS: 26.95%; ClpP1P2: -16.82%.
Result for Cc1nn(C)c(N(C)C)c1CNCc1ccc(OCC(N)=O)cc1.Cl was Toxoplasma: 2.171%; Leishmania in macrophages: 18.68%; T. brucei: -3.934%.

2 of the entries, repeated:

structure	Toxoplasma	Leishmania in macrophages	TcHisRS	LiHisRS	ClpP1P2	T. brucei
Cc1nn(C)c(Cl)c1C1CCCN1CC(=O)N1CCCCC1 (stereo unspecified)	1.277%	8.82%	3.097%	-2.655%	-6.391%	-33.88%
COCCN(Cc1ccc(OC)nc1)Cc1cccs1	-2.854%	-13.47%	5.419%	11.84%	11.65%	-95.94%

Data taken from ChEMBL document CHEMBL3988442, “University of Dundee, Small-Polar-MMV Screening Library” (2021).